## Primary screen of a compound library

The chains behind the UniProt entries cited, without tags or fusion partners.
UniProt E9BF75, entry or part of it: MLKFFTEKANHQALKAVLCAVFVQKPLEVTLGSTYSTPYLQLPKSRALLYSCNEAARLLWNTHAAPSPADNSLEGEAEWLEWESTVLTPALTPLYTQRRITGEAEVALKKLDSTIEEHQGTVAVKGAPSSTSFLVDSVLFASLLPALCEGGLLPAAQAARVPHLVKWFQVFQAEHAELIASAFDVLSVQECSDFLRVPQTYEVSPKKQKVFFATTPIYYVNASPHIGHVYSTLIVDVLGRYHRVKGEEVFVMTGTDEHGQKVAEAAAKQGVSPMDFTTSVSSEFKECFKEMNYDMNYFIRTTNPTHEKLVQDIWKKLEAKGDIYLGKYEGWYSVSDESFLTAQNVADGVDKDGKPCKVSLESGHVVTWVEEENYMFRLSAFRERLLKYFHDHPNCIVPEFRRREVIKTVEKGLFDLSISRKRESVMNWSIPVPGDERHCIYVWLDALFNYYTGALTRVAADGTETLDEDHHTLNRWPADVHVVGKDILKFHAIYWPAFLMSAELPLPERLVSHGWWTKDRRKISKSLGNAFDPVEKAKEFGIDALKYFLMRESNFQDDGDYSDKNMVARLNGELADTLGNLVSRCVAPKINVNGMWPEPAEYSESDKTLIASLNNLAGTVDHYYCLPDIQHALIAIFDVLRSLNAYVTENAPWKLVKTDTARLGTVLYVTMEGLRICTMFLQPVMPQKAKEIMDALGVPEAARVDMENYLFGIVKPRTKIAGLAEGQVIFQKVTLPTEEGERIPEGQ

Data taken from ChEMBL document CHEMBL3988442, “University of Dundee, Small-Polar-MMV Screening Library” (2021).

All values are in %.
How 0% and 100% were set is not recorded. Most values in the screen are low, and negative values occur.
This is an unselected part of the compounds tested.
A dash means the value is not listed here; it may have been measured.

LdMetRS: 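Primary screen of methionyl-tRNA synthetase; the read-out is not stated. Target: Methionyl-tRNA synthetase (putative), Leishmania donovani (UniProt E9BF75). The test concentration is not given. The values are filed as inhibition. About 68,000 compounds were tested under these conditions; 0.035% (about 24) showed 50% or more at least once.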
Mtb heat-shock: 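Assay on Mycobacterium tuberculosis, filed only as a heat shock assay from Cornell; the read-out is not stated. The concentration is filed as 10 mM, unlikely as a test dose, so the dose is not known. The record gives no direction; compounds that gave an IC50 in retests scored well above the rest, so higher reads as stronger inhibition. Of about 69,000 compounds tested this way, about 930 (1.4%) reached 50% or more in at least one test.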

| structure | LdMetRS | Mtb heat-shock |
|---|---|---|
| `Cc1ccc(C(=O)N2CCC[C@@H]2Cn2nnc3c(O)nc(C)nc32)cc1` | 19.77% | -11.39% |
| `CCOc1cccc(CNc2cncc(-n3cccn3)n2)c1` | 12.73% | 9.094% |
| `O=C(O)c1cc(-c2ccncc2)cc(S(=O)(=O)N2CCSCC2)c1` | 10.8% | -2.909% |
| `O=C1CO[C@@H]2CN(Cc3cccs3)C[C@H]2N1Cc1ccncc1` | 9.013% | - |
| `COCCCn1ccc(NC2CCSCC2)n1` | 3.846% | -17.27% |
| `CNC(=O)COc1cccc(CNC(=O)c2c(C)noc2C)c1` | 8.357% | -13.36% |
| `CCN1CCc2cc(-c3cncn3CC(=O)NC(C)(C)C)ccc21.Cl` | - | 19.95% |
| `CC(C)c1nccn1C1CCCN(C(=O)c2ccc3c(c2)OCO3)C1` (centres unmarked) | 8.333% | -12.98% |
| `CC1CN(Cc2ccccc2)CCCN1CCCS(C)(=O)=O` (centres unmarked) | 21.88% | 14.49% |
| `CC1CN(CC(=O)Nc2nncs2)CCN1Cc1nccn1C` (centres unmarked) | 13.65% | 13.01% |
| `O=C(NCCc1ccccc1Cl)NCC1(O)CCSC1` (centres unmarked) | 20.63% | -1.28% |
| `Cc1cc(C(=O)N2CCCN(Cc3nccn3C)CC2)no1` | -0.838% | -36.2% |
| `CCOc1cc(CN(C)Cc2ccccc2)ccc1OC(F)F` | 6.812% | -30.55% |
| `[H][C@@]12C[C@@H](C(=O)Nc3cnccn3)CN(S(C)(=O)=O)[C@]1([H])CCO2` | - | -42.78% |
| `CNc1nc2c(s1)C(c1ccccc1F)CC(=O)N2` (centres unmarked) | 0.5666% | -7.098% |
| `COc1cccc(C(=O)N2CCN(CC(O)c3ccccc3)CC2)c1` (centres unmarked) | 13.9% | -8.574% |
| `CC(C)c1cc(-c2nn3c(C(C)C)nnc3s2)[nH]n1` | 7.035% | 10.82% |
| `O=C(c1ccc[nH]1)N1CCN(CC2CCOc3ccccc3C2)CC1` (centres unmarked) | 7.08% | 11.98% |
| `CCCNC(=O)COc1ccc(C)cn1` | 14.5% | -18.96% |
| `CCC1COCCN1C(=O)NCc1nccn1CC(C)C` (centres unmarked) | 10.34% | 4.961% |
| `COCc1cc(N2CCN(Cc3ccncc3)CC2)n2nccc2n1` | 10.43% | 7.435% |
| `NC(=O)[C@H]1CCCN1C(=O)c1csc(-c2ccc(C(F)(F)F)cc2)n1` | 20.5% | 4.653% |
| `Clc1ccc(OCCN2CCN(CCn3cncn3)CC2)cc1` | 4.71% | -11.57% |
| `CC(C)N1Cc2cccc(NCC(=O)N(C)C3CCCCC3)c2C1` | 7.397% | 9.301% |
| `CCN1CCN(C2CCN(Cc3nnc(C(C)(C)C)o3)CC2)C1=O` | 15.28% | -3.325% |
| `O=C(O)C(F)(F)F.[H][C@]12C[C@H](C(=O)NC)N(C)[C@@]1([H])CN(S(=O)(=O)c1ccc(OC)cc1)C2` | - | -9.636% |
| `Cc1c(C(=O)N2CCC(O)(CN(C)C)C2)c2ccccc2n1C` (centres unmarked) | 5.145% | -29.61% |
| `OC1(Cn2ccc3ccncc32)CCN(Cc2ccccn2)CC1` | 11.3% | 4.072% |
| `Nc1cc(-c2ccc(C(=O)O)cc2O)c2cc[nH]c2n1` | 8.541% | 8.7% |
| `CC(C)Oc1cc(N2C[C@H](C3CC3)[C@@H](N)C2)nc(N)n1` | 13.86% | 2.459% |
| `COCCOCC(=O)N1C[C@@H]2CC[C@H](Oc3ccccc3Cl)[C@@H]2C1` | 19.29% | - |
| `[H][C@@]12CCN(S(=O)(=O)CC)[C@]1([H])CC[C@@H](c1nnc(C)o1)O2` | - | 1.117% |
| `O=C(CCc1nc(-c2ccsc2)no1)NCC1CCN(C2CC2)C1` (centres unmarked) | 0.838% | -20.17% |
| `COc1ccc(CC(=O)N2CCc3nnc(N(C)C)cc3C2)cc1F` | 10.43% | 36.08% |
| `Cc1nc(C(C)(C)C)sc1C(=O)NCCn1cccn1` | 12.37% | 8.345% |
| `Cc1ccc(CN(Cc2ccncc2)C2CC(C)(C)NC(C)(C)C2)o1.O=C(O)CC(O)(CC(=O)O)C(=O)O` | - | -8.52% |
| `Cc1nn(C)c(C)c1C1CCCN1Cc1noc(C2CC2)n1` (centres unmarked) | 7.087% | 17.46% |
| `Cn1cc(CN2CCCC(CCc3c(F)cccc3F)C2)cn1` (centres unmarked) | 2.419% | -17.64% |
| `Cn1ccc2cc(CC3COCCN(C(=O)c4ccccn4)C3)ccc21` (centres unmarked) | 10.31% | -0.646% |
| `Fc1ccc(CN2CC[C@H]3O[C@@H](COCc4cccnc4)CC[C@H]32)cc1` | 20.33% | - |
| `CCOCC1CN(Cc2cccc(C#N)c2)Cc2nccn2C1` (centres unmarked) | 11.5% | - |
| `Cc1nc(-c2ccncc2)ncc1C(C)NC(=O)CN1CCCCC1` (centres unmarked) | 5.115% | 18.19% |
| `[H][C@]12CCCN(S(=O)(=O)c3ccc(OC)c(F)c3)[C@@]1([H])CN(C(=O)C1CC1)C2` | - | -13.1% |
| `CCOc1c(C(N)=O)cn(C)c1-c1nc2cc(NC(C)=O)ccc2n1C` | 6.97% | -20.75% |
| `COCCN1CCN(Cc2c(C)noc2C)Cc2cccnc21` | 24.18% | - |
| `Cc1cccc(S(=O)(=O)N2C[C@H]3C[C@H](C(=O)NCC(C)C)[C@@H](C2)O3)c1` | -0.7246% | - |
| `Cc1cnc2n(c1=O)CC(C(=O)NC1CC1)CS2` (centres unmarked) | 11.33% | -6.225% |
| `COc1ccc(C(C)NCc2ccc(OC)c(OC)c2OC)cc1F` (centres unmarked) | 20.16% | - |
| `COc1cc2nc(C)n(CC(=O)NCCCN(C)C)c(=O)c2cc1OC` | 7.054% | 3.084% |
| `Cc1noc(C)c1C1CCCN1C(=O)CN1CC2(CCNCC2)OC1=O` (centres unmarked) | 9.058% | -7.774% |
| `Cc1noc(C)c1-c1cccc(CC2CCN(C(=O)CCC(=O)O)C2)n1` (centres unmarked) | 7.192% | -6.074% |
| `CC(CNCc1ccc2c(c1)n(C)c(=O)n2C)Oc1ccccn1.Cl` (centres unmarked) | - | -18.44% |
| `CC(C)c1nc(CN2CCCC2c2cnn(C)c2)cs1` (centres unmarked) | 18.87% | -19.29% |

Some entries from above, unchanged:

- Clc1ccc(OCCN2CCN(CCn3cncn3)CC2)cc1 : LdMetRS: 4.71%; Mtb heat-shock: -11.57%
- O=C(c1ccc[nH]1)N1CCN(CC2CCOc3ccccc3C2)CC1 (centres unmarked) : LdMetRS: 7.08%; Mtb heat-shock: 11.98%
- COCc1cc(N2CCN(Cc3ccncc3)CC2)n2nccc2n1 : LdMetRS: 10.43%; Mtb heat-shock: 7.435%